# Measurements reported in PubChem BioAssay AID540276 (National Center for Advancing Translational Sciences (NCATS), 2011).
# The campaign covered roughly 300,000 compounds. About 5,400 (1.8%) were called active. This list was built around the results that the source calls inconclusive (neither active nor inactive); the mix of calls is not that of the screen. Calls follow the shape of the full dose curve; tested in HEK293 cells. Where the call is inconclusive, the potency comes from a doubtful curve fit.
# Assay: qHTS for inhibitors of binding or entry into cells for Marburg Virus
# Conditions: Marburg virus pseudotyped entry inhibition, cell reporter; activity change, negative = inhibition: at 37.8 µM (top of the series) unless noted
# % is scaled to controls: 0 for no effect and ±100 for the full control effect; potency is read from the fitted curve at half-maximal effect.
Compound,Potency,"activity change, negative = inhibition"
O=C(NCC(=O)N(Cc1ccco1)C(C(=O)NC1CCCC1)c1cccnc1)c1cccs1 (stereo not given),"inconclusive: 0.794 µM [inhibitor, full curve, poor fit]",
COC(=O)c1ccccc1NC(=O)c1ccc(F)cc1,inactive,
Cc1sc2nc(CSc3ccccc3)nc(N3CCN(C)CC3)c2c1C,"inconclusive: 22.4 µM [inhibitor, single point]",
Cc1ccc(NC(=O)C2=NNC(=O)CC2)cc1F,"inconclusive: 6.31 µM [activator, full curve, poor fit]",
CCc1ccc(Nc2nc(C)cc(C)c2C(N)=O)cc1,"inconclusive: 0.112 µM [inhibitor, partial curve, poor fit]",
CN1CCN(NC(=O)c2cc(-c3cccc(Cl)c3)nc3ccccc23)CC1,"inconclusive: 11.2 µM [inhibitor, partial curve, poor fit]",
O=C1CSC(c2ccccn2)N1c1cccc(Cl)c1 (stereo not given),,inactive: -3.29%
COC(=O)C1CCN(C(=O)C2CCCCC2)CC1,,inactive: -0.79%
CC1(C)CC(=O)C2=C(C1)OC(N)=C(C#N)[C@]21C(=O)N(CN2CCOCC2)c2ccccc21,"inconclusive: 15.8 µM [activator, single point]",
C=CCNC(=O)C1CC1(c1ccc(C)cc1)c1ccc(C)cc1 (stereo not given),"inconclusive: 7.94 µM [inhibitor, partial curve, poor fit]",
CCCNC(=O)OC[C@H]1O[C@H](CCON=Cc2ccc(C(=O)N3[C@H](C(=O)OC)CC[C@H](C)[C@@H]3c3ccc(C)cc3)cc2)C=C[C@H]1Oc1ccc(OC)cc1,,inactive: -28.4% [at 14.2 µM]
Cc1noc(C)c1S(=O)(=O)N1CCCC(C(=O)Nc2ccc(Cl)cn2)C1 (stereo not given),"inconclusive: 17.8 µM [inhibitor, partial curve, poor fit]",
COc1cc(C(Nc2ccccn2)c2ccc3ccc(C)nc3c2O)cc(OC)c1O (stereo not given),"inconclusive: 20 µM [inhibitor, single point]",
Cc1cccc(N(C)S(=O)(=O)c2c(C)[nH]c(C)c2C(=O)N2CCCC2)c1,"inconclusive: 0.562 µM [inhibitor, full curve, poor fit]",
Cc1cccc(NC(=O)c2ccc(C3SCC(=O)N3CCc3ccccc3)cc2)c1C (stereo not given),"inconclusive: 11.6 µM [inhibitor, partial curve, poor fit]",
CN(CCOc1ccccc1)CC(=O)Nc1ccc([N+](=O)[O-])cc1Cl,,inactive: 0.883% [at 46.1 µM]
Cc1cccc2sc(NC(=O)C3CC3)nc12,"inconclusive: 0.251 µM [inhibitor, full curve, poor fit]",
CN(c1ccc(C(=O)Nc2ccccc2C(F)(F)F)cc1)S(C)(=O)=O,,inactive: 12% [at 46.1 µM]
O=C(CC(O)c1ccncc1)c1ccccc1O (stereo not given),"inconclusive: 20 µM [inhibitor, single point]",
O=C(c1ccc2nc(Cc3ccccc3F)oc2c1)N1CCCC1,"inconclusive: 2 µM [activator, partial curve, poor fit]",

# Looked up above.
# Entry for Cc1cccc(N(C)S(=O)(=O)c2c(C)[nH]c(C)c2C(=O)N2CCCC2)c1 under Potency: inconclusive: 0.562 µM [inhibitor, full curve, poor fit]
# Entry for CN1CCN(NC(=O)c2cc(-c3cccc(Cl)c3)nc3ccccc23)CC1 under Potency: inconclusive: 11.2 µM [inhibitor, partial curve, poor fit]
# Entry for CN(c1ccc(C(=O)Nc2ccccc2C(F)(F)F)cc1)S(C)(=O)=O under activity change, negative = inhibition: inactive: 12% [at 46.1 µM]

# (cont.)

Compound,Potency,"activity change, negative = inhibition"
Cc1cc(C(=O)OCC(=O)N2CC(=O)Nc3ccccc32)no1,"inconclusive: 0.73 µM [activator, full curve, poor fit]",
CS(=O)(=O)N(CC(=O)Nc1ccccc1C(=O)NCc1ccco1)c1ccc2c(c1)OCCO2,"inconclusive: 23.1 µM [inhibitor, single point]",
CC(=O)[C@@]1(O)CC[C@H]2[C@@H]3C[C@H](C)C4=CC(=O)CC[C@]4(C)[C@H]3CC[C@@]21C,,inactive: -27.2%
COc1ccc(C(=O)NCCc2ccccc2)cc1[N+](=O)[O-],,inactive: 1.46%
COc1cccc(/C=N/n2cnc3ccccc32)c1OC,"inconclusive: 6.51 µM [activator, partial curve, poor fit]",
CCC(=O)N1CCc2cc(Br)cc(S(=O)(=O)N3CCCC(C(=O)Nc4cccc(C)c4C)C3)c21 (stereo not given),"inconclusive: 0.562 µM [inhibitor, full curve, poor fit]",
Cc1ccc(Cl)cc1NC(=O)C1CCCN(S(=O)(=O)c2cccc3cccnc23)C1 (stereo not given),"inconclusive: 35.5 µM [inhibitor, single point]",
O=C(/C=C/c1cccc(O)c1)c1cccnc1,"inconclusive: 8.91 µM [inhibitor, partial curve, poor fit]",
CCC(C(=O)NC1CCCC1)N(C(=O)Cn1nnc(-c2ccc(C)o2)n1)c1ccc(F)cc1 (stereo not given),"inconclusive: 4.47 µM [inhibitor, partial curve]",
COc1ccc(NS(=O)(=O)c2cc(NC(=O)COc3ccc(OC)cc3)ccc2N2CCOCC2)cc1,,inactive: -8.28%
CC(NC(=O)COC(=O)/C=C/c1cccc(C(F)(F)F)c1)c1ccccc1 (stereo not given),"inconclusive: 35.5 µM [inhibitor, single point]",
COc1cc(OC)cc(C(=O)Nc2ccccc2-c2nnn(CC(N)=O)n2)c1,"inconclusive: 6.31 µM [activator, single point]",
Cc1cc(C)c(NC(=O)CN2C(=O)NC3(CCOc4ccccc43)C2=O)c(C)c1 (stereo not given),,inactive: 2.2%
Cc1[nH]c2ccccc2c1C(c1ccccc1)c1ccc(Cl)s1 (stereo not given),"inconclusive: 35.5 µM [inhibitor, single point]",
CCCCC(C(=O)NC(C)(C)C)N(Cc1ccco1)C(=O)c1snc(C(N)=O)c1N (stereo not given),"inconclusive: 20 µM [inhibitor, partial curve, poor fit]",
COc1ccc(-n2nc(C(=O)NCC(=O)NCC3COc4ccccc4O3)c3ccccc3c2=O)cc1OC (stereo not given),"inconclusive: 35.5 µM [inhibitor, partial curve, poor fit]",
CCN(CC)CCNC(=O)CSc1nc2nc(C)c(Cc3ccccc3)c(C)n2n1,"inconclusive: 35.5 µM [inhibitor, single point]",
O=c1cc2c(=O)oc3cc(O)c(O)oc3c2c(O)c1O,"inconclusive: 2.51 µM [inhibitor, full curve]",
CN(C)c1ccc(C(=O)NNC(=O)C23CC4CC(CC(C4)C2)C3)cc1,"inconclusive: 0.631 µM [activator, full curve]",
Cc1cc2c(cc1C)CSC(c1ccccc1OC(=O)C(C)C)SC2,"inconclusive: 35.5 µM [inhibitor, single point]",
